Data as given in PubChem BioAssay AID1259308 (NCATS, 2017).

- Test: 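Knock-downs that increase output of a recombinant reporter protein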 (primary screen)
- System: human HEK293 embryonic kidney cells stably expressing firefly luciferase (HEK-CMV-Luc2-Hygro)
- Knock-down reagent: single siRNA against human genes, 0.8 pmol siRNA per well
- Timing: 72 h
- Measured: 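Reporter luminescence and viable-cell signal on separate replicate plates, given as percent of non-targeting control and median/MAD z-scores, plus per-cell luciferase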
- Direction: total luciferase, z-score and total luciferase, % of control: higher = more reporter protein produced
- Call rule: 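Active when the median/MAD z-score for overall luciferase is greater than 3; a gene was taken forward for validation with new siRNAs if at least two of its three siRNAs passed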
- Calls: active = raised luciferase; inactive = no rise
The deposit covers about 59,000 reagents; below is a random part of them. About 1,510 of them (2.6%) count as active. 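Calls use total luciferase alone and ignore viability, so some active siRNAs may act by altering cell number.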 Unmarked entries are inactive. Reagents against one gene are numbered here. Further read-outs or replicates are left out here.

How did the screen score NFKB2 #1?
total luciferase, z-score: 1.71; total luciferase, % of control: 116

With NFKB2 #2, how do the results read?
total luciferase, z-score: 0.345; total luciferase, % of control: 88.7

With NFKB2 #3, what was measured?
total luciferase, z-score: -2.02; total luciferase, % of control: 41.8

With SPIC #1, how do the results read?
total luciferase, z-score: -0.377; total luciferase, % of control: 74.4

For SPIC #2, what does the deposit list?
total luciferase, z-score: -0.408; total luciferase, % of control: 73.8

What did the screen give for SPIC #3?
total luciferase, z-score: -0.118; total luciferase, % of control: 79.5

What did the screen give for BBLN #1?
total luciferase, z-score: 0.118; total luciferase, % of control: 84.2

For BBLN #2, what was measured?
total luciferase, z-score: -0.306; total luciferase, % of control: 75.8

With BBLN #3, what was measured?
total luciferase, z-score: -1.36; total luciferase, % of control: 54.8

What did the screen give for FANCF #1?
total luciferase, z-score: -0.00332; total luciferase, % of control: 81.8

With FANCF #2, how do the results read?
total luciferase, z-score: -1.17; total luciferase, % of control: 58.6

For FANCF #3, what was measured?
total luciferase, z-score: 0.765; total luciferase, % of control: 97.1

Already shown: an excerpt of the list.
BBLN #2 — total luciferase, z-score: -0.306; total luciferase, % of control: 75.8
BBLN #3 — total luciferase, z-score: -1.36; total luciferase, % of control: 54.8
FANCF #1 — total luciferase, z-score: -0.00332; total luciferase, % of control: 81.8

Continued.
What is on record for EGF #1?
total luciferase, z-score: -1; total luciferase, % of control: 61.9

What did the screen give for EGF #2?
total luciferase, z-score: 0.384; total luciferase, % of control: 89.5

With EGF #3, what does the deposit list?
total luciferase, z-score: 0.0587; total luciferase, % of control: 83.1

What is on record for ELOF1 #1?
total luciferase, z-score: -0.778; total luciferase, % of control: 66.4

How did the screen score ELOF1 #2?
total luciferase, z-score: -1.19; total luciferase, % of control: 58.1

With ELOF1 #3, how do the results read?
total luciferase, z-score: 0.689; total luciferase, % of control: 95.6

How did the screen score DHX57 #1?
total luciferase, z-score: 0.451; total luciferase, % of control: 90.9

For DHX57 #2, how do the results read?
total luciferase, z-score: 0.657; total luciferase, % of control: 94.9

With DHX57 #3, what does the deposit list?
total luciferase, z-score: -0.226; total luciferase, % of control: 77.4

With AQP5 #1, what does the deposit list?
total luciferase, z-score: -2.28; total luciferase, % of control: 36.5

What did the screen give for AQP5 #2?
total luciferase, z-score: 0.114; total luciferase, % of control: 84.2

Which result is listed for AQP5 #3?
total luciferase, z-score: 0.232; total luciferase, % of control: 86.5

What did the screen give for RTN4R #1?
total luciferase, z-score: 0.809; total luciferase, % of control: 98

With RTN4R #2, what was measured?
total luciferase, z-score: 1.35; total luciferase, % of control: 109

Which result is listed for RTN4R #3?
total luciferase, z-score: 0.445; total luciferase, % of control: 90.7

With WDR88 #1, how do the results read?
total luciferase, z-score: 1.29; total luciferase, % of control: 108

How did the screen score WDR88 #2?
total luciferase, z-score: -0.646; total luciferase, % of control: 69

Which result is listed for WDR88 #3?
total luciferase, z-score: 0.371; total luciferase, % of control: 89.3

With JUP #1, what was measured?
total luciferase, z-score: -0.958; total luciferase, % of control: 62.8

What did the screen give for JUP #2?
total luciferase, z-score: 0.26; total luciferase, % of control: 87.1

Which result is listed for JUP #3?
total luciferase, z-score: -0.486; total luciferase, % of control: 72.2
